Measured values from PMC8143644.
These are yes or no findings as the source states them, for the method shown. In cells and extracts the contact can be indirect. Some results given as binding are weak or reduced against the parent protein; the word gives no strength. Sequences can lack the tags named with a protein.

By UniProt entry, the sequences of proteins in these tests, tags left out.
UniProt Q9VHP0: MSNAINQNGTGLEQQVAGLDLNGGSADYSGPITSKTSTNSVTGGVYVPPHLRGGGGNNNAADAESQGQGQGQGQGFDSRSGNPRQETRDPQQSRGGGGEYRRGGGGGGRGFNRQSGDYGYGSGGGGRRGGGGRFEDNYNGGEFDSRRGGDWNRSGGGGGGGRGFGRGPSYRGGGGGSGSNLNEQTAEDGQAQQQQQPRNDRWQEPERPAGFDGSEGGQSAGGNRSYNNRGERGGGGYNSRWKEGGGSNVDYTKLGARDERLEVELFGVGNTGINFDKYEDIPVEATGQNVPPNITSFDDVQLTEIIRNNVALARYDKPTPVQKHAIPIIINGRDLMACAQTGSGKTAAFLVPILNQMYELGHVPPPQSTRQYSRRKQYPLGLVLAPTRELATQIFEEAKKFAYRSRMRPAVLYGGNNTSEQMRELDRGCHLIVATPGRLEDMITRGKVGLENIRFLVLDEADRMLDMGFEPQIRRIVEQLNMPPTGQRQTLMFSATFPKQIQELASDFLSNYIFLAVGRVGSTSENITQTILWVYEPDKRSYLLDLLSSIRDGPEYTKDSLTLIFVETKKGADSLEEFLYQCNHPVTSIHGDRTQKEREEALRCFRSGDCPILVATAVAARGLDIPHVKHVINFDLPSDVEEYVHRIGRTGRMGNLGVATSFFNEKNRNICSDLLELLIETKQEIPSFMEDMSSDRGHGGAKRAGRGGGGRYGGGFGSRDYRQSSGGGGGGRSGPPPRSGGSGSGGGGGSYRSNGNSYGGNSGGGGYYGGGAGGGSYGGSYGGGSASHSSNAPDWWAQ

Target: T1, Hrp48 (tagged, expressed in HEK293 cells) (Drosophila melanogaster) (UniProt P48809)
T1 sequence: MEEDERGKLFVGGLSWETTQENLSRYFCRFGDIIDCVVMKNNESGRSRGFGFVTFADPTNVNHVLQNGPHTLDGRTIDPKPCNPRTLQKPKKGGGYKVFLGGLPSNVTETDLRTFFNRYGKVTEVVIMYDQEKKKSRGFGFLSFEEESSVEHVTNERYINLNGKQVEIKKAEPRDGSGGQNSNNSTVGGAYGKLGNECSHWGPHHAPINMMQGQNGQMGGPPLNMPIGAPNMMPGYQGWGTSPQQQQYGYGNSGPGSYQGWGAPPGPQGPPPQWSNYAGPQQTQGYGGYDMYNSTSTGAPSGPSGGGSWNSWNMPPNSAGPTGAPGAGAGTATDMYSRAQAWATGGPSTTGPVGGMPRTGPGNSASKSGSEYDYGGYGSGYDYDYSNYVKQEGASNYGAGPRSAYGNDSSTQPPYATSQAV
Assay: co-IP; HEK293 cells co-transfected with bait and candidate (GFP-tagged bait with HA- or HA-Flag-tagged candidate, GFP-TRAP beads; or HA-Flag-tagged bait with GFP-tagged candidate, anti-Flag antibody); lysates treated with RNase A/T1; Western blot with anti-HA and anti-GFP

binding: binds
Substance: Belle (tagged, expressed in HEK293 cells) (from UniProt Q9VHP0 1-798)
